# Laboratory results reported in article PMC7819943, “Rice protein-binding microarrays: a tool to detect cis-acting elements near promoter regions in rice”.
# Protein sequences, listed by entry. Tags and fused reporters are not part of them.
# UniProt Q0JBA9, entry or part of it: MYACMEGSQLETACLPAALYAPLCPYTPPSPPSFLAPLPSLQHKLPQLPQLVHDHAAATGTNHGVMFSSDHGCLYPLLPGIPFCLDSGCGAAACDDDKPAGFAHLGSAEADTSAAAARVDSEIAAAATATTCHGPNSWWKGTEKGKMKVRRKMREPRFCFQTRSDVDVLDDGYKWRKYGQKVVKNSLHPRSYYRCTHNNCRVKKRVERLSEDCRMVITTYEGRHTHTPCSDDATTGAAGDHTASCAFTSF
# The list shows a part of the results.
# Target: OsWRKY34 (Oryza sativa, UniProt Q0JBA9 1-250)
# Test: protein-binding microarray (RPBM); PBS, 2% BSA, 51.3 ng/ul salmon testes DNA, 50 uM zinc acetate, 200 nM TF, 25 C, 1 h; high values mean tight binding
# Conditions: protein: recombinant; tags: N-terminal polyhistidine and DsRed monomer fusion (pET32a); label: CyDye5-dUTP incorporated in the synthesized complementary strand; 3' TTTTT single-stranded linker to array surface; dsDNA, one strand shown
# Outline: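 Per-feature fluorescence intensity (arbitrary units), read on an Axon 4000B scanner, is the binding signal. Transcription factors carrying an N-terminal polyhistidine tag and DsRed fusion were expressed in E. coli BL21-CodonPlus and purified on Ni–NTA. A custom Agilent array, made double-stranded by primer extension with Cy5-dUTP and blocked with 2% BSA, was incubated with 200 nM protein in PBS, 2% BSA, salmon testes DNA and 50 µM zinc acetate at 25 °C for 1 h and then washed.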
row,Sequence,binding signal
1,ATTGTGGTGAGGACATATCAATCTACTCCCTCCGTCCCAACGGAGTCACCTAGTGCAG,8770 fluorescence intensity (a.u.)
2,ATTTTAGGTTGCCTTGTATTCTCATTGTTCTCTATAGTAGCGGAGTCACCTAGTGCAG,8570 fluorescence intensity (a.u.)
3,TTTGCTAATGACGGGCTTAATAAATTCGTCTCACAGTTTACGGAGTCACCTAGTGCAG,8170 fluorescence intensity (a.u.)
4,TCTCTCTCTCACTCAGCAACAGCTCGCAGCTCACTCTCTCCGGAGTCACCTAGTGCAG,8590 fluorescence intensity (a.u.)
5,CCTTTCTTTATTACTCCGTCAACGTACGATTCCTTGAACTCGGAGTCACCTAGTGCAG,10400 fluorescence intensity (a.u.)
6,CAACGACGGCGGGGAGGGGAGGGCGAACGGGGTAGACGCCCGGAGTCACCTAGTGCAG,8980 fluorescence intensity (a.u.)
7,GCCGTTGACTTTTTAACACATGTTTGACCATTCGTCTTATCGGAGTCACCTAGTGCAG,60200 fluorescence intensity (a.u.)
8,GCAATAATTCACCAAGAATCGCACCACTTTTCACCTTTTCCGGAGTCACCTAGTGCAG,9980 fluorescence intensity (a.u.)
9,TCACATTTCATCATCCTCCTCCTGCTCGCACATTTCTTTCCGGAGTCACCTAGTGCAG,8060 fluorescence intensity (a.u.)
10,GTGAGACTTTTCTCCCTTGTTTGCTTCGCCTCGGCCCCTTCGGAGTCACCTAGTGCAG,9250 fluorescence intensity (a.u.)
11,AGGGGTCTTCTTTATCTTAGGCATTTCTTTTTTCCCATGGCGGAGTCACCTAGTGCAG,10800 fluorescence intensity (a.u.)
12,CTCTCTCTCACACGGCCTCATCCATCCATCCCCACCTGAGCGGAGTCACCTAGTGCAG,12900 fluorescence intensity (a.u.)
13,TTGATGCCTTTGCCTGGTACTTTTTCTTGTGCTCTATCCACGGAGTCACCTAGTGCAG,11800 fluorescence intensity (a.u.)
14,TATGCGTGTAAAAAATGAGGGAGCGGGGTTGGAAATAAGGCGGAGTCACCTAGTGCAG,9270 fluorescence intensity (a.u.)
15,TGGTCGTCGTCGTCTTGGTCACTTGGTCTCCATCTCCTCTCGGAGTCACCTAGTGCAG,10300 fluorescence intensity (a.u.)
16,CTCGGTTTCTTTGCCAAAAATCGCTGAGGGGCGCGTCCCCCGGAGTCACCTAGTGCAG,8600 fluorescence intensity (a.u.)
17,GTGTCCCCTCTCCTCTTAGGGGTCTTGTATTTATACCCATCGGAGTCACCTAGTGCAG,8150 fluorescence intensity (a.u.)
18,GCTAGCTCACTCACTCTACCTCGCTAGCGATCTACTCGATCGGAGTCACCTAGTGCAG,9680 fluorescence intensity (a.u.)
19,AGAGATCGCCTCCGCCTCGCACCCGCCGGCGCCGGCGCCGCGGAGTCACCTAGTGCAG,8370 fluorescence intensity (a.u.)
20,ACATACTCCGATCTTACTCCCTAGCTTGCAGAATTATTCTCGGAGTCACCTAGTGCAG,10400 fluorescence intensity (a.u.)
21,TCGTTCATGAATGCTCTCCGTTGTGTGTGTGTATCCCCTGCGGAGTCACCTAGTGCAG,8800 fluorescence intensity (a.u.)

# A run of entries taken from the entries so far, as a working copy:
row,Sequence,binding signal
3,TTTGCTAATGACGGGCTTAATAAATTCGTCTCACAGTTTACGGAGTCACCTAGTGCAG,8170 fluorescence intensity (a.u.)
4,TCTCTCTCTCACTCAGCAACAGCTCGCAGCTCACTCTCTCCGGAGTCACCTAGTGCAG,8590 fluorescence intensity (a.u.)

# Additional results follow.

row,Sequence,binding signal
1,TCGTCGAAGTTGTTGTACCTAGGGTGGGAGGAGTAGTGGCCGGAGTCACCTAGTGCAG,8140 fluorescence intensity (a.u.)
2,TCTAATCCATTGCCTCGTTTTTATCTATAGACTATCTCTACGGAGTCACCTAGTGCAG,10500 fluorescence intensity (a.u.)
3,CTTTTCTTTTTCTTCTTTTTTTTTATTATATACTAATAATCGGAGTCACCTAGTGCAG,9100 fluorescence intensity (a.u.)
4,TCGCCGCTCGCTGGGCCTGTGTCGTCGTCGTTGTTCGCTTCGGAGTCACCTAGTGCAG,10100 fluorescence intensity (a.u.)
5,TCATATTCAGCCCTAGGTTTATGTTGAGTTGGTCTTATCGCGGAGTCACCTAGTGCAG,8730 fluorescence intensity (a.u.)
6,CATGCCTTTTGTTTGTTCCATTTGGGCTATTATGTCGTCACGGAGTCACCTAGTGCAG,13900 fluorescence intensity (a.u.)
7,CGGATCGCTGAATCTTGCTGGTGGTGGTGGTGGTGGTGGTCGGAGTCACCTAGTGCAG,13800 fluorescence intensity (a.u.)
8,CATTCGAACTTCAAGATTTGTCTGTTTAACTACTTTAAAACGGAGTCACCTAGTGCAG,9010 fluorescence intensity (a.u.)
9,CTTCCAGGCAGTTGTTCTGTATCCTCTTCTTGTTGCAACACGGAGTCACCTAGTGCAG,8920 fluorescence intensity (a.u.)
10,CTCTGTTGGCTGCCCATGTCCTTTTATGGACCCTTTTATGCGGAGTCACCTAGTGCAG,10900 fluorescence intensity (a.u.)
11,AAAATATGTTAGTGTAGCTACATCCTAGTTACATTCCACTCGGAGTCACCTAGTGCAG,9830 fluorescence intensity (a.u.)
12,AACGCGTGTATTTCTATGCTTTTGATATTGATCTTGCATCCGGAGTCACCTAGTGCAG,8230 fluorescence intensity (a.u.)
13,ATCCGTCCTAAAATACTTGTCGTTTTGAGTTTTTCTTTCTCGGAGTCACCTAGTGCAG,10700 fluorescence intensity (a.u.)
14,TACGGGTTAGGGTTTGGGGTTGGGGTCAAGGTAGGAGGGGCGGAGTCACCTAGTGCAG,22500 fluorescence intensity (a.u.)
15,TCTGGACTTGTGATTTCTTGACATGTTCGTTTTTCTATTTCGGAGTCACCTAGTGCAG,9960 fluorescence intensity (a.u.)
16,GTACACATTTTCGTCTTCATTTCTCGATAACATTCTAACACGGAGTCACCTAGTGCAG,8100 fluorescence intensity (a.u.)
17,CTCTTTTTTTTTTGGTGTTTTAATAAGCACAACACATATACGGAGTCACCTAGTGCAG,8150 fluorescence intensity (a.u.)
18,GTCAAATATATTTTAAAAAGTCAACGGTATTAAATATTTACGGAGTCACCTAGTGCAG,13100 fluorescence intensity (a.u.)
19,ACTGCCGTGCGCGCGATTCCCTCGTCCCACCCTGCTGAAACGGAGTCACCTAGTGCAG,11800 fluorescence intensity (a.u.)
20,CCGGGCGCTCCTCTCGTTTCCTGGCCCATCATCCGTCACCCGGAGTCACCTAGTGCAG,8560 fluorescence intensity (a.u.)
21,TGGGGCATATAATTTTTTTTCAATATTATTTAGTCTCTCGCGGAGTCACCTAGTGCAG,8720 fluorescence intensity (a.u.)
